Data source: PubChem BioAssay AID1508597 (Cure First, 2020)

Purpose: 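Knock-downs altering ovarian cancer cell survival with or without PARP inhibitor rucaparib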 (primary screen)
Cells: human ovarian carcinoma lines grown from tumours: OCI-P5x (papillary serous) and OCI-C5x (clear cell)
Reagent: siRNA pool against human genes, 1.25 pmol siRNA per well
Time to read-out: 72 h or 96 h, depending on the cell culture
Challenge: rucaparib 20 µM (about IC30) or vehicle, present until read-out
Rucaparib or vehicle: Rucaparib
Cell line: OCI-P5x (serous)
Detection: 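Luminescent ATP-based viability assay read 72 or 96 h after transfection, depending on culture, given as normalised percent viability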
Direction: viability, normalised: higher = more viable cells remaining
Rule for the call: 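Active when normalised viability falls below 80 percent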
Calls: active = viability under 80%; inactive = viability 80% or more
This is a random part of the about 2,100 reagents, under one of the conditions tested. 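Calls flag viability under 80% in either arm, not effects specific to rucaparib; the reference for percent is not stated.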 A number with no mark means an inactive call. Not stated in the record: the 100% reference.

Target gene | technical replicate | viability, normalised (%)
PALS1 (GeneID 64398) | 1 | 122
PALS1 (GeneID 64398) | 2 | 117
PALS1 (GeneID 64398) | 3 | 72.3 (active)
LBR (GeneID 3930) | 1 | 55.4 (active)
LBR (GeneID 3930) | 2 | 59 (active)
LBR (GeneID 3930) | 3 | 44.7 (active)
TRIP13 (GeneID 9319) | 1 | 53.4 (active)
TRIP13 (GeneID 9319) | 2 | 45.7 (active)
TRIP13 (GeneID 9319) | 3 | 62.6 (active)
CDT1 (GeneID 81620) | 1 | 80.4
CDT1 (GeneID 81620) | 2 | 83.9
CDT1 (GeneID 81620) | 3 | 65.6 (active)
HKDC1 (GeneID 80201) | 1 | 54.1 (active)
HKDC1 (GeneID 80201) | 2 | 55.3 (active)
HKDC1 (GeneID 80201) | 3 | 58 (active)
CSNK1G3 (GeneID 1456) | 1 | 95.6
CSNK1G3 (GeneID 1456) | 2 | 86.1
CSNK1G3 (GeneID 1456) | 3 | 70 (active)
RAI1 (GeneID 10743) | 1 | 45.2 (active)
RAI1 (GeneID 10743) | 2 | 53.9 (active)
RAI1 (GeneID 10743) | 3 | 50.4 (active)
VRK1 (GeneID 7443) | 1 | 113
VRK1 (GeneID 7443) | 2 | 104
VRK1 (GeneID 7443) | 3 | 80.8

Continued (8 carried over from the part before).
Target gene | technical replicate | viability, normalised (%)
CSNK1G3 (GeneID 1456) | 2 | 86.1
CSNK1G3 (GeneID 1456) | 3 | 70 (active)
RAI1 (GeneID 10743) | 1 | 45.2 (active)
RAI1 (GeneID 10743) | 2 | 53.9 (active)
RAI1 (GeneID 10743) | 3 | 50.4 (active)
VRK1 (GeneID 7443) | 1 | 113
VRK1 (GeneID 7443) | 2 | 104
VRK1 (GeneID 7443) | 3 | 80.8
EYA4 (GeneID 2070) | 1 | 56.7 (active)
EYA4 (GeneID 2070) | 2 | 59 (active)
EYA4 (GeneID 2070) | 3 | 63.4 (active)
CBX8 (GeneID 57332) | 1 | 69.5 (active)
CBX8 (GeneID 57332) | 2 | 64.3 (active)
CBX8 (GeneID 57332) | 3 | 66.4 (active)
IKBKB (GeneID 3551) | 1 | 74.1 (active)
IKBKB (GeneID 3551) | 2 | 75 (active)
IKBKB (GeneID 3551) | 3 | 66 (active)
PRKAG1 (GeneID 5571) | 1 | 123
PRKAG1 (GeneID 5571) | 2 | 118
PRKAG1 (GeneID 5571) | 3 | 109
NCOA3 (GeneID 8202) | 1 | 42.3 (active)
NCOA3 (GeneID 8202) | 2 | 55.1 (active)
NCOA3 (GeneID 8202) | 3 | 48.4 (active)
TNRC6B (GeneID 23112) | 1 | 64 (active)
TNRC6B (GeneID 23112) | 2 | 61.6 (active)
TNRC6B (GeneID 23112) | 3 | 58.3 (active)
GRN (GeneID 2896) | 1 | 87.9
GRN (GeneID 2896) | 2 | 88.2
GRN (GeneID 2896) | 3 | 83.9
PDE6B (GeneID 5158) | 1 | 59.1 (active)
PDE6B (GeneID 5158) | 2 | 75.4 (active)
PDE6B (GeneID 5158) | 3 | 58.9 (active)
DSCC1 (GeneID 79075) | 1 | 96.2
DSCC1 (GeneID 79075) | 2 | 97.4
DSCC1 (GeneID 79075) | 3 | 98.9
LHCGR (GeneID 3973) | 1 | 58 (active)
LHCGR (GeneID 3973) | 2 | 54.9 (active)
LHCGR (GeneID 3973) | 3 | 60.7 (active)
SOX9 (GeneID 6662) | 1 | 69 (active)
SOX9 (GeneID 6662) | 2 | 85.3
SOX9 (GeneID 6662) | 3 | 75.8 (active)
